PubChem BioAssay AID1259254 | NCATS, 2017
Shown is an unselected part of about 59,000 reagents. About 1,550 of all reagents (2.6%) were called active. 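G2 share is only a proxy for re-replication; each gene was hit by three separate siRNAs, and active genes were retested.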 Raw values vary from plate to plate and are shown uncorrected. Reagents against one gene are numbered here. The record does not give: the amount of reagent.

- Aim: 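Genome-wide screen for genes that prevent DNA re-replication in cancer cells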 (primary screen)
- System: human HCT116 colorectal cancer cells
- Knock-down reagent: single siRNA against human genes
- Duration: 3 days
- Detection: 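Nuclei stained with Hoechst and imaged; cell-cycle phase assigned by DNA content; G2 share scaled per plate, non-targeting siRNA 0%, GMNN siRNA 100%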
- Direction: G2 robust z-score and G2 cells, % of GMNN control: higher = more G2 cells, more excess DNA replication; raw share of cells in G2: higher = larger share of cells with G2 DNA content
- Active means: 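An siRNA counts as active if its G2 robust z-score lies at least 5 MADs above the screen median; here such calls match roughly 38% of GMNN control or more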

| gene | siRNA no. | G2 robust z-score | G2 cells, % of GMNN control | raw share of cells in G2 (%) | call |
| --- | --- | --- | --- | --- | --- |
| GARIN5B | 1 | 0.724 | 8.06 | 6.58 | inactive |
| GARIN5B | 2 | 5.12 | 39 | 18.1 | active |
| GARIN5B | 3 | 0.000659 | 2.97 | 4.17 | inactive |
| ADAP2 | 1 | 0.14 | 3.95 | 8.16 | inactive |
| ADAP2 | 2 | -0.269 | 1.07 | 4.82 | inactive |
| ADAP2 | 3 | 5.36 | 40.7 | 21.3 | active |
| FGFR1 | 1 | -0.615 | -1.36 | 5.16 | inactive |
| FGFR1 | 2 | -0.847 | -2.99 | 4.4 | inactive |
| FGFR1 | 3 | -0.593 | -1.21 | 3.6 | inactive |
| TNNI2 | 1 | -0.654 | -1.64 | 4.41 | inactive |
| TNNI2 | 2 | 2.29 | 19.1 | 11.5 | inactive |
| TNNI2 | 3 | -1.01 | -4.11 | 1.89 | inactive |
| NXPE3 | 1 | 6.02 | 45.3 | 23.3 | active |
| NXPE3 | 2 | -0.291 | 0.923 | 3.29 | inactive |
| NXPE3 | 3 | 0.965 | 9.76 | 6.02 | inactive |
| TEX55 | 1 | 1.44 | 13.1 | 7.65 | inactive |
| TEX55 | 2 | 0.405 | 5.81 | 5.78 | inactive |
| TEX55 | 3 | 2.85 | 23 | 10 | inactive |
| RANBP1 | 1 | -0.205 | 1.53 | 5.26 | inactive |
| RANBP1 | 2 | -0.604 | -1.28 | 3.72 | inactive |
| RANBP1 | 3 | -0.0857 | 2.36 | 5.79 | inactive |
| ARHGEF19 | 1 | -1.17 | -5.25 | 2.19 | inactive |
| ARHGEF19 | 2 | 0.38 | 5.64 | 4.89 | inactive |
| ARHGEF19 | 3 | -0.428 | -0.0419 | 2.56 | inactive |
| RPS13 | 1 | 4.9 | 37.4 | 20.9 | inactive |
| RPS13 | 2 | 3.17 | 25.3 | 14.2 | inactive |
| RPS13 | 3 | 4.11 | 31.9 | 14.9 | inactive |
| BACC1 | 1 | -0.93 | -3.58 | 0.773 | inactive |
| BACC1 | 2 | -0.417 | 0.0343 | 4.11 | inactive |
| BACC1 | 3 | -0.509 | -0.614 | 3.15 | inactive |
| TUFT1 | 1 | -0.559 | -0.964 | 4.7 | inactive |
| TUFT1 | 2 | 2.29 | 19.1 | 11.5 | inactive |
| TUFT1 | 3 | -0.628 | -1.45 | 2.84 | inactive |
| KBTBD4 | 1 | 0.206 | 4.42 | 6.22 | inactive |
| KBTBD4 | 2 | -0.442 | -0.14 | 4.08 | inactive |
| KBTBD4 | 3 | -0.8 | -2.66 | 2.29 | inactive |
| ROBO3 | 1 | 0.32 | 5.22 | 6.12 | inactive |
| ROBO3 | 2 | -1.3 | -6.18 | 3.09 | inactive |
| ROBO3 | 3 | 0.112 | 3.75 | 5.67 | inactive |
| RFX2 | 1 | -0.119 | 2.13 | 4.31 | inactive |
| RFX2 | 2 | -0.489 | -0.476 | 4.62 | inactive |
| RFX2 | 3 | 0.562 | 6.92 | 5.62 | inactive |
| YIPF1 | 1 | 0.476 | 6.32 | 5.86 | inactive |
| YIPF1 | 2 | 2.15 | 18.1 | 11.9 | inactive |
| YIPF1 | 3 | 0.805 | 8.63 | 6.05 | inactive |

Records listed above with an active call (3):
| gene | siRNA no. | G2 robust z-score | G2 cells, % of GMNN control | raw share of cells in G2 (%) | call |
| --- | --- | --- | --- | --- | --- |
| GARIN5B | 2 | 5.12 | 39 | 18.1 | active |
| ADAP2 | 3 | 5.36 | 40.7 | 21.3 | active |
| NXPE3 | 1 | 6.02 | 45.3 | 23.3 | active |

More reagents:
| gene | siRNA no. | G2 robust z-score | G2 cells, % of GMNN control | raw share of cells in G2 (%) | call |
| --- | --- | --- | --- | --- | --- |
| TRIM22 | 1 | -1.63 | -8.5 | 2 | inactive |
| TRIM22 | 2 | -1.24 | -5.72 | 4.22 | inactive |
| TRIM22 | 3 | -1.11 | -4.85 | 2.27 | inactive |
| RPS28 | 1 | 3.81 | 29.7 | 17.6 | inactive |
| RPS28 | 2 | 4.53 | 34.8 | 18 | inactive |
| RPS28 | 3 | 3.77 | 29.5 | 14 | inactive |
| SERINC4 | 1 | 0.397 | 5.76 | 5.85 | inactive |
| SERINC4 | 2 | 0.281 | 4.94 | 5.29 | inactive |
| SERINC4 | 3 | 0.596 | 7.16 | 5.55 | inactive |
| SNRNP48 | 1 | -0.839 | -2.94 | 2.55 | inactive |
| SNRNP48 | 2 | -0.188 | 1.65 | 3.51 | inactive |
| SNRNP48 | 3 | -0.674 | -1.77 | 2.2 | inactive |
| SCAP | 1 | -0.844 | -2.97 | 3.82 | inactive |
| SCAP | 2 | 5.59 | 42.3 | 21.6 | active |
| SCAP | 3 | -0.651 | -1.62 | 2.57 | inactive |
| MLEC | 1 | 2.32 | 19.3 | 14.1 | inactive |
| MLEC | 2 | -0.395 | 0.192 | 4.02 | inactive |
| MLEC | 3 | -0.392 | 0.209 | 3.48 | inactive |
| LINC01114 | 1 | 1.79 | 15.5 | 9.31 | inactive |
| LINC01114 | 2 | 0.483 | 6.37 | 5.51 | inactive |
| LINC01114 | 3 | -0.523 | -0.714 | 3.05 | inactive |
| GPR32 | 1 | -1.01 | -4.15 | 4.36 | inactive |
| GPR32 | 2 | 0.796 | 8.57 | 7.51 | inactive |
| GPR32 | 3 | 1.77 | 15.4 | 8 | inactive |
